Source: publication PMC11955556
These are yes or no findings as the source states them, for the method shown. In cells and extracts the contact can be indirect. Some binding calls cover weakened binding; strength is not graded here. For part of these data: Sequences can lack the tags named with a protein.

The chains behind the UniProt entries cited, without tags or fusion partners.
UniProt O60825: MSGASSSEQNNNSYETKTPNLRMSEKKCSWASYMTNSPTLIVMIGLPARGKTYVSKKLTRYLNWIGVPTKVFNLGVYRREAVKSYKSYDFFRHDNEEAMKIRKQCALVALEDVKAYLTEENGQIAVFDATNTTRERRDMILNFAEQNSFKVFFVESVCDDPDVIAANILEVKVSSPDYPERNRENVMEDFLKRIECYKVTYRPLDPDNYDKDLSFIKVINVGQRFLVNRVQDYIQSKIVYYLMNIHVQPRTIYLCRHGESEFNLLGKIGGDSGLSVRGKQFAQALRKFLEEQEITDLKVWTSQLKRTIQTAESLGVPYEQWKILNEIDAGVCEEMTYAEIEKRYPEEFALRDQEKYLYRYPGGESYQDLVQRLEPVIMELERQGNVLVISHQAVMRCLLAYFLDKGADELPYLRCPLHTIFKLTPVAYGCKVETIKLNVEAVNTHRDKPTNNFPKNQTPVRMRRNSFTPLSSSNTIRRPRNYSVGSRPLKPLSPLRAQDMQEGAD
UniProt Q9P1W9: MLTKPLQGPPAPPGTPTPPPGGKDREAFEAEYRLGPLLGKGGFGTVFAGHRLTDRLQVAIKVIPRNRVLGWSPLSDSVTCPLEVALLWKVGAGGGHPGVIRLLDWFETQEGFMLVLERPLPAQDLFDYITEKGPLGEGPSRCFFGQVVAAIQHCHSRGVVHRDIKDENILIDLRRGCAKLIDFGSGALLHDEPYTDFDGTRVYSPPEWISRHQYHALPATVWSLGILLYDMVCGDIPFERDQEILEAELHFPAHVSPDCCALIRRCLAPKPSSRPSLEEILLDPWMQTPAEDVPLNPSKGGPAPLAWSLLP

Assays:
Assay in all cases: co-IP; HEK293T cells co-transfected with Flag-Pim2 and an HA-tagged enzyme; RIPA lysate; immunoprecipitation with anti-HA and anti-Flag antibodies on protein A/G beads; Western blot
[1] = target: T1, HA-tagged PDHA1 (UniProt P08559)
T1 sequence: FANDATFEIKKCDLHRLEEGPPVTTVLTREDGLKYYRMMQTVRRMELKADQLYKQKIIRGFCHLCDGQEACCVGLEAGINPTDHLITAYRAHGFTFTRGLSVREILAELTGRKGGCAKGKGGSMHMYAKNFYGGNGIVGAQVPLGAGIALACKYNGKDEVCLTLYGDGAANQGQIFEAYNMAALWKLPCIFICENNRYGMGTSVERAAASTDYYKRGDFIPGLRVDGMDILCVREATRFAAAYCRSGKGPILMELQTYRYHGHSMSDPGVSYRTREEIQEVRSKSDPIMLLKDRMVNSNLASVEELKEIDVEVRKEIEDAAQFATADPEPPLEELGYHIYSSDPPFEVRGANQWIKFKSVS

[2] = target: HA-tagged PFKFB2 (UniProt O60825)
[3] = target: T2, HA-tagged PGK1 (UniProt P00558)
T2 sequence: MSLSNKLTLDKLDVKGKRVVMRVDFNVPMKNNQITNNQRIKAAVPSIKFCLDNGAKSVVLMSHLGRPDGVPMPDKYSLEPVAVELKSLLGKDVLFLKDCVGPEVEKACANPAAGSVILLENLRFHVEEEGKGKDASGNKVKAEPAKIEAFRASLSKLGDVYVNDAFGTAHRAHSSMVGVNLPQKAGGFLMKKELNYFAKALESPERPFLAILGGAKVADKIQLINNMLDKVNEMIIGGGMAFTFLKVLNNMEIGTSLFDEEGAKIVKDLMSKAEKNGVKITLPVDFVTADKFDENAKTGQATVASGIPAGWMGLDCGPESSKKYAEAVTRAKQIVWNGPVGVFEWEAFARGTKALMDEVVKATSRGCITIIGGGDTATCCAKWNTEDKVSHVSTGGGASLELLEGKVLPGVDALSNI

Measured: binding

Flag-tagged Pim2 (proviral integration of Moloney virus 2 kinase) (from UniProt Q9P1W9 1-311) (enzyme)
binds: all assays above
